From article PMC4890593 come the findings set out here.

Amino acid sequences for entries named in this document (tags omitted). A change or cut given only in a name is not applied to a line headed by its entry.
UniProt P23258: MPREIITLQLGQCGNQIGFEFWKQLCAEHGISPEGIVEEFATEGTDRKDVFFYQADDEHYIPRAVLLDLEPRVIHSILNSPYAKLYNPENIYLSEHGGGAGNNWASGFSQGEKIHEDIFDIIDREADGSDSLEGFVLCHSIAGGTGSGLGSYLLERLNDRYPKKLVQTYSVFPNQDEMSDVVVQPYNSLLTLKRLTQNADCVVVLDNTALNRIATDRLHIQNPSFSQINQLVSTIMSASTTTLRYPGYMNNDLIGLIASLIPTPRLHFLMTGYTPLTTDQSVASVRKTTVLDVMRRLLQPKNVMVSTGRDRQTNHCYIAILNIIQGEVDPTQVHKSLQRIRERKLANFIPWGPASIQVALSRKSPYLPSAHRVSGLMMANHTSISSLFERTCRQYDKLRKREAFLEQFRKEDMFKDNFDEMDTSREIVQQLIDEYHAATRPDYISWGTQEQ

One experiment has as its target T1, GST-14-3-3γ (UniProt P61981).
T1 sequence: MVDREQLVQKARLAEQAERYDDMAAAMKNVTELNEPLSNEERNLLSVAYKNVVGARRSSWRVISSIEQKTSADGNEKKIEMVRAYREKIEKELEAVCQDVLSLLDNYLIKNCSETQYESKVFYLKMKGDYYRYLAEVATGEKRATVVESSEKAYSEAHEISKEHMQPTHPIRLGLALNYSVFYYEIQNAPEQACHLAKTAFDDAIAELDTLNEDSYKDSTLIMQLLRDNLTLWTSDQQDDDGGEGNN
Briefly: pull-down; biochemical analysis with bacterially purified 14-3-3 proteins (Supplementary Fig. S2e); source of γ-Tubulin not told; only the target purified.

Experiment [1] addresses T2, 14-3-3γ (human (endogenous in HCT116)) (UniProt P61981).
T2 sequence: T1 sequence
Briefly: FRET or BRET; sensitized emission FRET in fixed cells stained with antibodies to γ-Tubulin and 14-3-3γ (Alexa-Fluor-488 donor, Alexa-Fluor-546 acceptor); 14-3-3γ-knockdown cells compared with vector-control cells. Background: Bioluminescence resonance energy transfer reports proximity on the nanometre scale.

A further experiment deals with T3, dsRed-14-3-3γ (UniProt P61981).
T3 sequence: T1 sequence
Put plainly: FRET or BRET; sensitized emission FRET in fixed HCT116 cells transfected with GFP-γ-Tubulin (donor) and dsRed-14-3-3γ (acceptor).

Results are given in words; binding and its absence hold for the method and conditions named. Binding seen in cells or lysates may run through a third protein. Binding can be weak; no strength is given. For part of these data: Where a sequence is shown, tags or fusion partners need not be part of it.

In the case of γ-Tubulin (from UniProt P23258), the binding entry (with GST-14-3-3γ; in experiment [1]) was “binds” in each case.
Turning to GFP-γ-Tubulin (from UniProt P23258), the binding result in the experiment with dsRed-14-3-3γ is on record as “binds”.
